This test concerns the target Flag-PRMT1 (human) (UniProt Q99873). The experiment in a line: affinity purification with mass spectrometry; Flag-M2 agarose purification from 293T cells stably expressing Flag-PRMT1 against empty-vector cells; 0.1% NP40 lysis buffer, 150 mM NaCl; Flag peptide elution; SDS-PAGE and LC-MS/MS.

Protein sequences, listed by entry. Tags and fused reporters are not part of them.
UniProt Q99873: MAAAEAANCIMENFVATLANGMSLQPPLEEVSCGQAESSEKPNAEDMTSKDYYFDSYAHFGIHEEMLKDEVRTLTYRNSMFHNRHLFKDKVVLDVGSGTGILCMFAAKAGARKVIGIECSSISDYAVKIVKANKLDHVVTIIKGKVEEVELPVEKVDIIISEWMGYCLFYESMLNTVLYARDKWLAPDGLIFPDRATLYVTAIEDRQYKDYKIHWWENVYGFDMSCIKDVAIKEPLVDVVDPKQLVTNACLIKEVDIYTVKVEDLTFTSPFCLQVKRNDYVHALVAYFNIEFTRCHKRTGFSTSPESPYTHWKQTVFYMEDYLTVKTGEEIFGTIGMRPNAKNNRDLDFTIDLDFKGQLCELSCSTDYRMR
UniProt P51784: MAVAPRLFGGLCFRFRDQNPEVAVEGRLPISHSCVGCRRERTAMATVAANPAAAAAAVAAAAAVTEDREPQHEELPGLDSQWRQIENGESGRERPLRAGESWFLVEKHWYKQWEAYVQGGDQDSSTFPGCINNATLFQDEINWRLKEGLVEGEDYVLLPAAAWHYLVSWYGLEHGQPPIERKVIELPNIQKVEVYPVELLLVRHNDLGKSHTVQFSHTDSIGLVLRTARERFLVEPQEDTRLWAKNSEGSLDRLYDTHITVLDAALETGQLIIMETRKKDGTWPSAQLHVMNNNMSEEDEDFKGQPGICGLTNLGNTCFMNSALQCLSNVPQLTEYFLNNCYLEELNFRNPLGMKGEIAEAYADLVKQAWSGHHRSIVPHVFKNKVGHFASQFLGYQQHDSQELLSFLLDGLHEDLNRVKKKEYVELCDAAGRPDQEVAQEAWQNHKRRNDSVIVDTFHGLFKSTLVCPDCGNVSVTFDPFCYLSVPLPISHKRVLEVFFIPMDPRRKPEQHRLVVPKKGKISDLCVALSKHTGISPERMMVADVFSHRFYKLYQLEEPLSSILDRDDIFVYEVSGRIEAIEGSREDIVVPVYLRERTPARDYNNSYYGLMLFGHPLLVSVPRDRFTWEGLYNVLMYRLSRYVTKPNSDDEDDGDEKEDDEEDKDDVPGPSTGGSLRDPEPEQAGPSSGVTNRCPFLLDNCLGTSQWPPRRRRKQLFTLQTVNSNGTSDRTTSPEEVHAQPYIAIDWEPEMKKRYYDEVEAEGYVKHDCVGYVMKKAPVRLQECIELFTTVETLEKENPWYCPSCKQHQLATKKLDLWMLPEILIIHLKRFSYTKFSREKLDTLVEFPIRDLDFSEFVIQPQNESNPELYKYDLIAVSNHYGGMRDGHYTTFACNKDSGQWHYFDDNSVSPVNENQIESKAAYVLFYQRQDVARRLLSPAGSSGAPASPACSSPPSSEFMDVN

Data on one substance can be found in paper PMC8564520.

Results are given in words; binding and its absence hold for the method and conditions named. In cells and extracts the contact can be indirect. A yes stands for co-enrichment or nearness to the bait. Other partners may have been found.

Regarding “USP11 (endogenous, 293T) (from UniProt P51784 1-963) (enzyme)”, the binding entry is recorded as “binds”.
